Data as given in the supplement of paper PMC4807443.
Where a name gives a salt, the structure may show the parent alone. The list shows a part of the results. The numbers are fractions of the control, whatever unit the source prints. Most values lie at the level of the controls, where differences are scatter.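 MIN6 is a mouse insulinoma beta-cell line that stably carries a lentiviral reporter in which the Pdx1 and Ins1 promoters each drive a nucleus-targeted fluorescent protein; cells were counted by automated imaging with a Hoechst nuclear stain. In the screen, a drug was a possible hit when its Ins1 promoter readout lay beyond two median absolute deviations from the DMSO controls while Pdx1 activity stayed near normal.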

Test system: MIN6
Assay: % Pdx1+ Ins1-low (RFP-only, immature) cells relative to DMSO control (fold of DMSO control); higher = more immature Pdx1+/Ins1-low cells
Conditions: 8.5 µM; 48 h; glucose 5 mM

In order of rising “% Pdx1+ Ins1-low” value:
1. CC(=O)O[C@H]1C[C@@H]2CC[C@@H]3[C@H](CC[C@@]4(C)[C@H]3C[C@H]([N+]3(C)CCCCC3)[C@@H]4OC(C)=O)[C@@]2(C)C[C@@H]1[N+]1(C)CCCCC1 [Pancuronium bromide]  0.673
2. CN[C@@H]1[C@@H](O)[C@@H](O[C@@H]2[C@@H](O)[C@H](O[C@H]3O[C@H](CN)CC[C@H]3N)[C@@H](N)C[C@H]2N)OC[C@]1(C)O.CN[C@@H]1[C@@H](O)[C@@H](O[C@@H]2[C@@H](O)[C@H](O[C@H]3O[C@H]([C@@H](C)N)CC[C@H]3N)[C@@H](N)C[C@H]2N)OC[C@]1(C)O.CN[C@@H]1[C@@H](O)[C@@H](O[C@@H]2[C@@H](O)[C@H](O[C@H]3O[C@H]([C@@H](C)NC)CC[C@H]3N)[C@@H](N)C[C@H]2N)OC[C@]1(C)O [Gentamicine sulfate]  0.689
3. O=c1ccc2cc(O[C@@H]3O[C@H](CO)[C@@H](O)[C@H](O)[C@H]3O)c(O)cc2o1 [Esculin Hydrate]  0.71
4. N[C@@H]1C[C@H]1c1ccccc1 [Tranylcypromine hydrochloride]  0.796
5. CN1CCC2(C)c3cc(O)ccc3N(C)C12 (single isomer, unassigned; (-)) [(-)-Eseroline fumarate salt]  0.844
6. CC(NC(C)(C)C)C(=O)c1cccc(Cl)c1 (stereo not given) [Bupropion hydrochloride]  0.847
7. NCC(CC(=O)O)c1ccc(Cl)cc1 (racemic) [Baclofen (R,S)]  0.861
8. COc1ccc2c(c1O)-c1c(OC)c(OC)cc3c1[C@H](C2)N(C)CC3 [Isocorydine (+)]  0.922
9. COc1c2c(cc3c1OCO3)CCN(C)C2 [Hydrocotarnine hydrobromide]  1
10. CN1[C@@H]2C[C@@H](OC(=O)[C@H](CO)c3ccccc3)C[C@H]1[C@@H]1O[C@@H]12 [Scopolamine hydrochloride]  1.07
11. COc1cc(C(=O)OC2CC3CCC(C2)N3C)ccc1O (stereo not given) [Fillalbin]  1.09
12. O=c1c2ccccc2[se]n1-c1ccccc1 [Ebselen]  1.09
13. C=CCN1CC[C@]23c4c5ccc(O)c4O[C@H]2C(=O)CC[C@@]3(O)[C@H]1C5 [Naloxone hydrochloride]  1.18
14. CCN1C[C@]2(C)CC[C@H](O)[C@]34C1[C@@H](C[C@H]23)[C@@]1(O)C[C@H](OC)[C@H]2C[C@@H]4[C@@H]1[C@H]2O [Karakoline]  1.22
15. O=C1CC[C@@]2(O)[C@H]3Cc4ccc(O)c5c4[C@@]2(CCN3CC2CC2)[C@H]1O5 [Naltrexone hydrochloride dihydrate]  1.24
